Data on 31 molecules can be found in the supplement of paper PMC12889115.

The test has as its system Salmonella enterica serovar Typhimurium SL1344. Briefly: bacterial growth OD600 after 18 h with compound and polymyxin B; higher = more bacterial growth (less inhibition). Particulars: 50 µM, Mueller-Hinton broth.

The other results are listed elsewhere or left out. Values are raw readings; no control value is given beside them.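 First-pass screen: polymyxin B was added at a level that permeabilizes the Salmonella outer membrane while sparing the inner membrane. DMSO wells, with and without polymyxin B, defined maximum growth. Because plates differed from one another, each plate's data were ranked separately and the compounds with the lowest OD600 were carried forward as hits.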

As for `COCC(C)NC(=O)c1ccc(OC2CCN(C3CCCC3)CC2)c(OC)c1` (stereo unspecified), the “bacterial growth OD600” value (polymyxin B 1 µg/mL) turned out to be 0.967. The same measure, in the same setting: to `O=C(NCC(F)(F)F)c1cc(COc2ccc(F)c(F)c2)on1` belongs 0.638. Turning to `CC(=O)Nc1cc(C(=O)NCC2CCCN(C(C)C)C2)cc2ncn(CCc3ccccn3)c12` (stereo unspecified), for the setting “polymyxin B 0.75 µg/mL”, the “bacterial growth OD600” value was found to be 0.836.

For the molecule `Cc1cc(C(=O)N2CCC(C3CCN(c4ncccn4)CC3)C2)n(C)n1` (stereo unspecified), under “polymyxin B 0.75 µg/mL”, the “bacterial growth OD600” value turned out to be 0.792. Still for that read-out and setting: to `COCCN(Cc1cccc2cnccc12)CC1CCCN(C2Cc3ccccc3C2)C1` (stereo unspecified) belongs 0.702; to `Cc1cc(-c2cc(F)cc3c2OC(CNC(=O)c2ccoc2)C3)ccc1F` (stereo unspecified), 0; to `COc1ccc(CC2(CCC(=O)NCCc3ccccc3Cl)CCC(=O)N2)c2ccccc12` (stereo unspecified), 0.695. On to `COc1ccc(C(=O)NCc2cc(C)n(C)n2)cc1OC1CCN(C(C)C)CC1`, for which, for the setting “polymyxin B 1 µg/mL”, the “bacterial growth OD600” value was found to be 1.08. For the molecule `COc1ccc(CN(C)Cc2nc(-c3cccc(F)c3)oc2C)c2cccnc12`, under “polymyxin B 0.75 µg/mL”, the “bacterial growth OD600” value was determined as 0.84.

In the case of `c1cnc(N2CCOCC2)c(CNCc2ccc(C3CCCCO3)o2)c1` (stereo unspecified), the “bacterial growth OD600” value (polymyxin B 1 µg/mL) came to 0.776. The same measure, in the same setting: then `CC(C)=CC(=O)N1CCC(Oc2cccc(C(=O)NCc3ccccn3)c2)CC1`, with 0.828.

Turning to `COc1cc(CNC2CCN(c3ccc(C(=O)NC4CCCC4)cc3)CC2)cc(OC)c1OC`, the “bacterial growth OD600” value (polymyxin B 0.75 µg/mL) was determined as 0.853.

`COC(=O)[C@@H](NC1CCN(c2ccc(NC(=O)c3cnccn3)cc2)CC1)c1ccccc1`: for the setting “polymyxin B 0.75 µg/mL”, the “bacterial growth OD600” value was 0.874. Consider `O=C(NCC1CCCCO1)c1coc(COc2ccc3ncccc3c2)n1` (stereo unspecified), for which the “bacterial growth OD600” value (polymyxin B 1 µg/mL) turned out to be 0.877. As to `Cc1cc(C(=O)N2CCC(C3CCN(CC(C)C)CC3)C2)c(C)o1` (stereo unspecified), for the setting “polymyxin B 0.75 µg/mL”, the “bacterial growth OD600” value came out at 0.715.

Consider `CCOc1ccc(CN2CCC(Oc3cc(OC)ccc3C(=O)N3CCCC3)CC2)cc1`, for which the “bacterial growth OD600” value (polymyxin B 1 µg/mL) stood at 1.16. `CCO[C@H]1[C@H](NC(=O)c2cccnc2)c2ccccc2C12CCN(C(=O)c1ccc(F)cc1)CC2`: for the setting “polymyxin B 0.75 µg/mL”, the “bacterial growth OD600” value is 0.816. In the case of `CN(Cc1ccccc1Cl)C(=O)c1coc(COc2cccc(F)c2)n1`, the “bacterial growth OD600” value (polymyxin B 1 µg/mL) was found to be 0.046. Turning to `O=C(NCC1CCCN(S(=O)(=O)/C=C/c2ccccc2)C1)c1ccco1` (stereo unspecified), under “polymyxin B 0.75 µg/mL”, the “bacterial growth OD600” value was 0.033. As to `COc1ccc(OCc2nc(C(=O)N(C)Cc3cccnc3)co2)cc1`, the “bacterial growth OD600” value (polymyxin B 1 µg/mL) was 0.929. Regarding `CCOC(=O)C1CCCN(C(=O)CC2(c3cccc(C(F)(F)F)c3)CC(=O)N(CC)C2=O)C1` (stereo unspecified), the “bacterial growth OD600” value (polymyxin B 0.75 µg/mL) is 0.701.

`COC(=O)C1CCN(Cc2cn(-c3ccccc3)nc2-c2ccc3c(c2)OCO3)CC1`: the “bacterial growth OD600” value (polymyxin B 1 µg/mL) is 0.904.

With `O=C1CCCN1CCC(=O)N1CCc2[nH]nc(-c3ccc(C(F)(F)F)cc3)c2C1`, the “bacterial growth OD600” value (polymyxin B 0.75 µg/mL) came out at 0.949. Regarding `COc1ccc(-c2nn(-c3ccccc3C)cc2CN(C)C2CCOC2)cc1F` (stereo unspecified), under “polymyxin B 1 µg/mL”, the “bacterial growth OD600” value came to 0.612.

For the molecule `COC(=O)c1ccc(CNCCC2CCC(=O)N2CCOC(C)C)cc1` (stereo unspecified), the “bacterial growth OD600” value (polymyxin B 0.75 µg/mL) came out at 0.947.

On to `Cc1nc(N2CCC(C(=O)NCC3OCCc4ccccc43)CC2)nc2cc(S(C)(=O)=O)ccc12` (stereo unspecified), for which, where the note is “polymyxin B 0.75 µg/mL”, the “bacterial growth OD600” value came out at 0.82.

`CC(C)N1CCC(C(=O)N2CCCC(CCc3cccc(F)c3)C2)CC1` (stereo unspecified): the “bacterial growth OD600” value (polymyxin B 0.75 µg/mL) amounted to 0.516. For `CC(=O)NCC(=O)N1CCC(C2CCN(Cc3ccc(Cl)cc3)C2)CC1` (stereo unspecified), the “bacterial growth OD600” value (polymyxin B 0.75 µg/mL) was found to be 0.904. As for `Cc1ccccc1N1CCN(c2ncccc2CNC(=O)C2CCCC2)CC1`, the “bacterial growth OD600” value (polymyxin B 1 µg/mL) was 0.095.

`CSCCNC(=O)C1CCC(=O)N(CCc2cccc(F)c2)C1` (stereo unspecified): the “bacterial growth OD600” value (polymyxin B 1 µg/mL) stood at 0.789. With `Cc1ccccc1-n1nnnc1C(c1ccccc1)N(C)C(=O)CCC1(C)CCC(=O)N1` (stereo unspecified), the “bacterial growth OD600” value (polymyxin B 0.75 µg/mL) was determined as 0.82.
